Laboratory results from article PMC11381028.
Results are given in words; binding and its absence hold for the method and conditions named. Binding seen in cells or lysates may run through a third protein. Some entries that bind do so weakly or less than the wild type.

The chains behind the UniProt entries cited, without tags or fusion partners.
UniProt B0LPN4: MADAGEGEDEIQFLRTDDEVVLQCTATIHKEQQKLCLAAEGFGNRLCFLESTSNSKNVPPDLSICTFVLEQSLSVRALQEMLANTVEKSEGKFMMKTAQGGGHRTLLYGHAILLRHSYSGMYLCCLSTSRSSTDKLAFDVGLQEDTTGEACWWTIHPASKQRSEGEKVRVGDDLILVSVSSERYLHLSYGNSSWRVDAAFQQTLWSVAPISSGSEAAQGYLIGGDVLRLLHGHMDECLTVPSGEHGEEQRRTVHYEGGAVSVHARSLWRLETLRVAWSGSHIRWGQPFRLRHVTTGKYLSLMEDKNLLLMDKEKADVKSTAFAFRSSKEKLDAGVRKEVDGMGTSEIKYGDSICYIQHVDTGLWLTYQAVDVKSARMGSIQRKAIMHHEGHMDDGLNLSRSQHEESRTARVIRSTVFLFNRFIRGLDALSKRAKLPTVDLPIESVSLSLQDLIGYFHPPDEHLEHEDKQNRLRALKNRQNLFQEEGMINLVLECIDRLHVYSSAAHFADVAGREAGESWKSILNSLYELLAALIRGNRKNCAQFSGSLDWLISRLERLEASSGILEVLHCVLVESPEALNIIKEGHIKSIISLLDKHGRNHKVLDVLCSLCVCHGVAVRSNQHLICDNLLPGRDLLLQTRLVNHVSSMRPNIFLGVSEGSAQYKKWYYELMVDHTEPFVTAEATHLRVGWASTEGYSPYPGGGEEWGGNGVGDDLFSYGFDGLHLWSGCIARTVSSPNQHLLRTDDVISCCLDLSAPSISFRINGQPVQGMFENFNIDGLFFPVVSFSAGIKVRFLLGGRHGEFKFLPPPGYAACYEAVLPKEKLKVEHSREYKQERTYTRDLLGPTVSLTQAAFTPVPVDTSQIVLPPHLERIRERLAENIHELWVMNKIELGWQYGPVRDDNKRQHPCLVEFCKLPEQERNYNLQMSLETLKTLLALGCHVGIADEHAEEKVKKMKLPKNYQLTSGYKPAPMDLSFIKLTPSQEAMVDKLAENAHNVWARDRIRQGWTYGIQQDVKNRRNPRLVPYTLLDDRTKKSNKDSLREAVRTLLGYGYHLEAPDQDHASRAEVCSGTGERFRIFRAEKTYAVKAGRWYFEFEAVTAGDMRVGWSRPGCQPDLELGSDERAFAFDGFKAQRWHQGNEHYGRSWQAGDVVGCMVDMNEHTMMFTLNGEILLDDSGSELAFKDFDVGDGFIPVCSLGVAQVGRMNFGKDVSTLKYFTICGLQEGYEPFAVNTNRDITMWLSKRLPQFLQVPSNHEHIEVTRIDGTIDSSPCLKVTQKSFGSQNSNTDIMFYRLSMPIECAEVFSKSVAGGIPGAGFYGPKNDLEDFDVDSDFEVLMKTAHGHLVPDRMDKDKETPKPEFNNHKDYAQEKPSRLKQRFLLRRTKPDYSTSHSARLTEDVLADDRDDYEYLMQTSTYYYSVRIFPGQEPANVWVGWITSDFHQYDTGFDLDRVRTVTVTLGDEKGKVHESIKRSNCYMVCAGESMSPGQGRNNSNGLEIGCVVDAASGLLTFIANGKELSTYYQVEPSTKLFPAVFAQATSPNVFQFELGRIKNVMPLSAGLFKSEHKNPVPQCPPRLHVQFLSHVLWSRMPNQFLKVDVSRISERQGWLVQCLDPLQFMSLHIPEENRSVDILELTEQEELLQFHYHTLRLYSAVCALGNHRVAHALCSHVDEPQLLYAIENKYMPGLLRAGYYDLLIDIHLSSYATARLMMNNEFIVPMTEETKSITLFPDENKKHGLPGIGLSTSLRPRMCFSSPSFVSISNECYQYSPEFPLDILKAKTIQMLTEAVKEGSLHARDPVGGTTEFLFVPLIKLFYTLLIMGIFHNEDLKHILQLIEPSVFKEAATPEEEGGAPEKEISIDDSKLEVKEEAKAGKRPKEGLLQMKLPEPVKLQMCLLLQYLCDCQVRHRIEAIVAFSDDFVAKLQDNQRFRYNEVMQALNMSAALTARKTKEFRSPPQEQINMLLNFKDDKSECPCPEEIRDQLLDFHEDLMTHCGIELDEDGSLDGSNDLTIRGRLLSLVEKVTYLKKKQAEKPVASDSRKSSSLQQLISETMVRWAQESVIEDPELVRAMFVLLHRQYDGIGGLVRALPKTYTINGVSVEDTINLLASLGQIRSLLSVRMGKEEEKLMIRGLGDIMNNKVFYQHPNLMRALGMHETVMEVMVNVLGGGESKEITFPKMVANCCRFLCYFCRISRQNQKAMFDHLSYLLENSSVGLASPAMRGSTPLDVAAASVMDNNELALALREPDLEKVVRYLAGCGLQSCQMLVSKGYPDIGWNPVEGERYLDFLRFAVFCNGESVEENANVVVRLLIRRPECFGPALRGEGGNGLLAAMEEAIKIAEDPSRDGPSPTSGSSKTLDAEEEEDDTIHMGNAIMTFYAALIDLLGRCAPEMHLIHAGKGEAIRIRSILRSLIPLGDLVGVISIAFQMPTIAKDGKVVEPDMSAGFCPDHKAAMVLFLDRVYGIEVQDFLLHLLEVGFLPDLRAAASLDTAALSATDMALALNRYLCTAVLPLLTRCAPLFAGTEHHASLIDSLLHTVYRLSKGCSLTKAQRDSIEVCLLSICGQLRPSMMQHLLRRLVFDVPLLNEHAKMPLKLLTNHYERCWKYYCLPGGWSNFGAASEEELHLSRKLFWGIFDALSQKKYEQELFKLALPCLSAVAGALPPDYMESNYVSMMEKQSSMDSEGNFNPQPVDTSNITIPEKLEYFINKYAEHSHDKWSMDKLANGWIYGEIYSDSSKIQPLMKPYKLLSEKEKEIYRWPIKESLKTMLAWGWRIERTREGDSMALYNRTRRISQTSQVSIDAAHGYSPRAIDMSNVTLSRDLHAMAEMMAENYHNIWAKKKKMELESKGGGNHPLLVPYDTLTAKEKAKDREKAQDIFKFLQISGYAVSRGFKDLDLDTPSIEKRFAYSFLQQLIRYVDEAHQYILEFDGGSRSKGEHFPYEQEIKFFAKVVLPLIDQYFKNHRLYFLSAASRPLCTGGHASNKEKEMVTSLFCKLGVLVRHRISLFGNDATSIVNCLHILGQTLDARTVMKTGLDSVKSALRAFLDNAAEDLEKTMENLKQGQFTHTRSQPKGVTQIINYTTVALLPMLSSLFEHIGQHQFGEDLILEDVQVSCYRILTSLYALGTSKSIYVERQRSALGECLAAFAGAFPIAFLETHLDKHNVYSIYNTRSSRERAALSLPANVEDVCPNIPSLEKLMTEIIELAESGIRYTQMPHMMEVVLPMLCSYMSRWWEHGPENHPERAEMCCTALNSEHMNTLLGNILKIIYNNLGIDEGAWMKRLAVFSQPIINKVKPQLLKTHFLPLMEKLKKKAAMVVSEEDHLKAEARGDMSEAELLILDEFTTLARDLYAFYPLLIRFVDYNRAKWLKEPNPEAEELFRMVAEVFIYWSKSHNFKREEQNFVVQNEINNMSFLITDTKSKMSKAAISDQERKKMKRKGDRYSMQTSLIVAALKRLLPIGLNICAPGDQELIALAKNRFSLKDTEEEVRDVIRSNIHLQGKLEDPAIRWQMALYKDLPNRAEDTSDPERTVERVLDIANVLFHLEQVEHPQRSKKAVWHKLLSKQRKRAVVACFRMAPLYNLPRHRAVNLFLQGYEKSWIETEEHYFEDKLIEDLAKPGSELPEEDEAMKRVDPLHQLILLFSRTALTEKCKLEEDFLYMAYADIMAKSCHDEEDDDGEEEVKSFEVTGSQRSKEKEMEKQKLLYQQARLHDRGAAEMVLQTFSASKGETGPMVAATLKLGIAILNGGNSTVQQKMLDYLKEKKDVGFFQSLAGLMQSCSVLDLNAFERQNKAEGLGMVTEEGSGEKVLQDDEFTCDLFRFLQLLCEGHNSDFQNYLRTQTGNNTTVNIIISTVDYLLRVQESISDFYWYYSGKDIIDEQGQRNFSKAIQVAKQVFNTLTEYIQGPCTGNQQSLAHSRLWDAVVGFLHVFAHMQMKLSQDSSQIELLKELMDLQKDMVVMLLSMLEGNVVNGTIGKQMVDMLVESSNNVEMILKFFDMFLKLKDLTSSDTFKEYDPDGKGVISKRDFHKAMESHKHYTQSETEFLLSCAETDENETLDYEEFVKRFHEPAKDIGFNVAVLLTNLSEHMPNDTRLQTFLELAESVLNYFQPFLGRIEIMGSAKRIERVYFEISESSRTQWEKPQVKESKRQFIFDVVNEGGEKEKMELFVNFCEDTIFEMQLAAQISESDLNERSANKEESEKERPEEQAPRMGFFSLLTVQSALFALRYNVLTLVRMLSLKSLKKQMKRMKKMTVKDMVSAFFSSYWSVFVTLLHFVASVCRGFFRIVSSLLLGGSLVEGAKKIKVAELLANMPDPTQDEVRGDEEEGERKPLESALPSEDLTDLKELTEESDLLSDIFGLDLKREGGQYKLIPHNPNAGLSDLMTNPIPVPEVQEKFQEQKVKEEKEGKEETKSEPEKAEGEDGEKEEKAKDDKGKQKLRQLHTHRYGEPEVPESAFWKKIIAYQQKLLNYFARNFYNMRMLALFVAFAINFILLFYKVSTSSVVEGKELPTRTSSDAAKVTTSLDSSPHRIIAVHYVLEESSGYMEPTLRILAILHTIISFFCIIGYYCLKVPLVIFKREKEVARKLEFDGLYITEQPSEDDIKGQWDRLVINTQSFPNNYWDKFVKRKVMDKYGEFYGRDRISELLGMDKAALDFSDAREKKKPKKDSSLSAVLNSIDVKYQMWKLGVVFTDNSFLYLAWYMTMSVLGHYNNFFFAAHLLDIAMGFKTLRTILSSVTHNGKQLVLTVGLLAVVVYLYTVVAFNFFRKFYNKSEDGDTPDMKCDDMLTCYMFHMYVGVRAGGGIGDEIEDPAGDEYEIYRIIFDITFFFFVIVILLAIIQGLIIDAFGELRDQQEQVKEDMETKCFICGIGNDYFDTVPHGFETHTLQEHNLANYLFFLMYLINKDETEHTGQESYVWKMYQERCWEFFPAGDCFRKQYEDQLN
UniProt P23297: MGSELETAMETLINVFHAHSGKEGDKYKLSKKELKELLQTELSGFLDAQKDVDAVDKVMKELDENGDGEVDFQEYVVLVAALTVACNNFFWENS

Target: ryanodine receptor 2 (rat (endogenous in neonatal rat cardiomyocytes)) (UniProt B0LPN4)
Test: co-IP; RyR2 immunoprecipitated from lysates of adenovirally transduced neonatal rat cardiomyocytes; lysis buffer 1% Nonidet-P40, 10% glycerol, 135 mM NaCl, 1 mM CaCl2, 20 mM Tris-HCl pH 7.4 (high Ca2+), 4°C; S100A1 detected by immunoblot

## wild-type S100A1 (human), overexpressed by adenovirus (from UniProt P23297 1-94)
  binding: binds
